The structures appear in SMILES notation. This is one part of the list. Repeats are few or missing, and single values can be far off.

The subject of this test is Trypanosoma brucei brucei bloodstream form L262P (kDNA-independent). Kind of test: viability Z-score (nuclei count per well, median-polish normalised, relative to plate distribution); higher = more viable parasites (negative = growth inhibition). Particulars: 4 days; compound concentration: 10 µM (some Prestwick/PKE rows may be 1 µM / not distinguished).
In the case of `CC(C)c1nnc(NC(=O)CCC(=O)O)s1`, the “viability Z-score” value was -5.21.
As for `O=C(NCCCCCC(=O)O)C=1/C=C(/OC)C(=CC=1)OC`, the “viability Z-score” value was -2.65.
On to `O=C1NC(=O)C(=CN1/C2=C/C=C(/[Cl])C=C2)C#N`, for which the “viability Z-score” value is -2.82.
Regarding `NC(=O)CS/C=c1\nc(N)n2ncnc12`, the “viability Z-score” value is -5.24.
As for `O=C(NCC=1/C=C(/[Br])C=CC=1OC)CC/C2=N/C(=NO2)C=3[S]C=CC=3`, the “viability Z-score” value was -2.94.
Take `CN(C)N=Nc1[nH]cnc1C(N)=O` [Dacarbazine]: the “viability Z-score” value was -3.46.
In the case of `C=CC[N@@+]12CC[C@]34c5ccccc5N5/C=C6\C7N(/C=C(\C53)[C@@H](C[C@@H]41)/C(=C/CO)C2)c1ccccc1[C@@]71CC[N@@+]2(CC=C)C/C(=C\CO)[C@@H]6C[C@@H]12` (stereo partly drawn) [Alcuronium chloride], the “viability Z-score” value is -4.67.
On to `N[C@H](C(=O)O)[C@@H]1CC(Cl)=NO1` [Acivicin], for which the “viability Z-score” value is -1.9.
Turning to `N#C/C1=C(/N=C(/N)C(C#N)=C1/C3=C/C=2OCOC=2C=C3)OC(C)(C)[H]`, the “viability Z-score” value is -2.02.
For `O=[N+]([O-])c1cccc([C@@H]2C=C(c3ccc(Br)cc3)Nc3ncnn32)c1`, the “viability Z-score” value is -1.4.
As for `CN(C)S(=O)(=O)c1ccc2nc(NC(=O)C(c3ccccc3)c3ccccc3)sc2c1`, the “viability Z-score” value is -1.72.
As for `COc1ccc(C=C(NC(=O)c2ccccc2)C(=O)N/N=C2/C(=O)N(CC(=O)O)c3ccccc32)cc1OC`, the figure is -5.62; as for `O=C(NCCC[S]CCCC)C3([H])CCN(CC=1N=C(OC=1C)C=2/C=C(/OC)C(=CC=2)OC)CC3`, -3.08.

The values are drawn from the supplement of paper PMC8846439.
